From publication PMC4629891
The exact form of at least one protein or probe is not confirmed. At least one result comes from cells or an extract, where the contact may be indirect. For some of these results: Negatives hold for the conditions tested. For some of these results: At least one verdict rests on a figure or table, not on a statement of the authors.

Protein sequences, listed by entry. Tags and fused reporters are not part of them. Lines headed by an entry give the natural chain unless they say otherwise; changes in a name come on top.
UniProt P19338: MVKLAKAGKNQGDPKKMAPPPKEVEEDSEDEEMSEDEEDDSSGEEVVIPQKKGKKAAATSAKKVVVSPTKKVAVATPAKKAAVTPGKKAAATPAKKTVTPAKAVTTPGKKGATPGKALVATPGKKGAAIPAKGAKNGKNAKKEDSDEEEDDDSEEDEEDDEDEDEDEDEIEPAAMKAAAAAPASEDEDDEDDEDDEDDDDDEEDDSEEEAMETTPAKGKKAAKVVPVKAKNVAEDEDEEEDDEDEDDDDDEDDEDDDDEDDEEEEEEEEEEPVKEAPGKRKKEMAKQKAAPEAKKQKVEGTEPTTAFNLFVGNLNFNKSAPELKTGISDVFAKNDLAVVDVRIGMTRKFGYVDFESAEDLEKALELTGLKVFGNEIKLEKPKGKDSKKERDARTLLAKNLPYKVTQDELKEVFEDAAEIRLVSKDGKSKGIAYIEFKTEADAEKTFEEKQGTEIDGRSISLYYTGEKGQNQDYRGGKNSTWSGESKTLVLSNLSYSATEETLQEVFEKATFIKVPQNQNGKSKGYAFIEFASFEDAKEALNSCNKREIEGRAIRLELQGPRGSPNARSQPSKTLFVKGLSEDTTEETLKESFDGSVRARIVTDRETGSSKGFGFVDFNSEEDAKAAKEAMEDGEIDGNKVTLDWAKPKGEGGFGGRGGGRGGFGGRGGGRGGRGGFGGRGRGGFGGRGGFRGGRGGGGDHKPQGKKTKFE

Legend:
[1] = target: nucleolin (on the surface of live Huh7 cells) (UniProt P19338); assay: flow cytometry on live Huh7 cells; settings: 5 mM MgCl2, 200 nM DNA, Dulbecco's PBS, 4.5 g/L glucose, 5 mM MgCl2, 0.1 mg/mL yeast tRNA, 1 mg/mL BSA, on ice 30 min, 2x10^5 cells in 200 uL, pH not stated, protein on the cell surface, label: 5'-biotin (streptavidin-PE detection), single-stranded DNA
[2] = target: nucleolin (on the surface of live Huh7 cells) (UniProt P19338); assay: confocal microscopy of live Huh7 cells; settings: 200 nM, 30 min, room temperature; Dulbecco's PBS, 4.5 g/L glucose, 5 mM MgCl2, 0.1 mg/mL yeast tRNA, 1 mg/mL BSA, on ice 30 min; 2x10^5 cells in 200 uL; pH not stated; protein on the cell surface; folded or branched DNA
[3] = target: nucleolin (on the surface of live HCO2 cells) (UniProt P19338); assay: confocal microscopy of live HCO2 cells; settings: 200 nM, 30 min, room temperature; Dulbecco's PBS, 4.5 g/L glucose, 5 mM MgCl2, 0.1 mg/mL yeast tRNA, 1 mg/mL BSA, on ice 30 min; 2x10^5 cells in 200 uL; pH not stated; protein on the cell surface; folded or branched DNA

Q: Does “CGACGACGACGACGACGACGACGACGACGA [Control DNA]” bind [1]?
A: no binding

Q: Does “CGACGACGACGACGACGACGACGACGACGA [control-Dox adduct]” bind ([1]; doxorubicin adducts via formaldehyde)?
A: no binding

Q: What does the source list for “GGTGGTGGTGGTTGTGGTGGTGGTGG [AS1411-FITC]”?
A: binding result [2]: binds; binding result [3]: binds
